Test results reported in patent US20210348119A1, “COMPOSITIONS AND METHODS FOR CELL CULTURE” (The United States of America as Represented By The …, priority 2018, published 2021).
Several values for one entry are separate records, joined by “and”; a condition that tells them apart may be missing. Equal entries are not always repeated. Structures can show the parent of a compound that is named as a salt.

tested on: H9 cells; assay: qHTS for survival of dissociated H9 cells (CellTiter-Glo, 24 hours after seeding); assay type: cell-based, human; conditions: curve class per Huang et al. 2011
From the text: FIG. 2 schematically illustrates qHTS procedure.
All the screed compounds were received pre-plated at the pre-determined concentrations. […] Curve classification is explained in Huang et al. “Chemical genomics profiling of environmental chemical modulation of human nuclear receptors” Environ. Health. Perspect.

Molecule | CC (curve class)
COc1cccc(CNC(=O)Nc2nc(-c3ccncc3)cs2)c1 [1-(3-methoxybenzyl)-3-(4-(pyridin-4-yl)thiazol-2-yl)urea] | 1
O=S(=O)(c1cccc2cnccc12)N1CCCNCC1 [Fasudil hydrochloride] | 3
Cc1sc2c(c1C)C(c1ccc(Cl)cc1)=N[C@@H](CC(=O)NCCCCNC(=O)COc1cccc3c1C(=O)N(C1CCC(=O)NC1=O)C3=O)c1nnc(C)n1-2 (stereo partly shown) [dBETI] | −1
Cc1cc(Nc2cc(NC(=O)c3c(Cl)cccc3Cl)ccn2)nc(N)n1 [RO495] | 1
CC1CNCCN1S(=O)(=O)c1cccc2cnccc12.Cl.Cl (stereo not shown) [1-(5-Isoquinolinylsulfonyl)-2-methylpipenvine dihydrochloride] | 3
COC(=O)c1cc(Br)cnc1N1CCC(NC2CCCCC2)C(O)C1 (stereo not shown) [NCGC00386932-01] | −1
COc1ccc(-c2c(C)c(C(=O)NN3CCCCC3)nn2-c2ccc(Cl)cc2Cl)cc1 [NIDA-41020] | 2
O=C(c1ccc(/C=C/c2n[nH]c3ccccc23)cc1)N1CCNCC1 [KW-2449] | 3
O=S(=O)(N=Cc1c(O)ccc2ccccc12)c1cccs1 [STF-083010] | 2
COCCOc1ccc2c(c1)ncn2-c1ccc2cccc(N3CCC(N)CC3)c2n1 [CP-673451] | 4
(−)-Indolactam V | 1
Cc1cncc2cccc(S(=O)(=O)N3CCCN(C(=O)CN)C[C@@H]3C)c12 [Glycyl-H-1152] | 1
CC1(C)CC[C@]2(C(=O)O)CC[C@]3(C)C(=CC[C@@H]4[C@@]5(C)CC[C@H](O)C(C)(C)[C@@H]5CC[C@]43C)[C@@H]2C1 [Oleanolic acid] | 4
CC(N/C(=N\C#N)Nc1ccncc1)C(C)(C)C (stereo not shown) [Pinacidil] | 3
C[S+]([O-])c1ccc(-c2nc(-c3ccncc3)c(-c3ccc(F)cc3)[nH]2)cc1 (stereo not shown) [SB-203580] | 3
CC(=O)O[C@H]1C(=O)[C@]2(C)C(O)C[C@H]3OC[C@@]3(OC(C)=O)[C@H]2[C@H](OC(=O)c2ccccc2)[C@]2(O)C[C@H](O)C(C)=C1C2(C)C (stereo partly shown) [NCGC00384655-01] | 2
Cc1cccc(NC(=O)c2ccc(C(F)(F)F)cc2C(=O)O)n1 [AF38469] | 2
O=C(Nc1ccc(-c2ccncc2)cc1)N[C@H](CO)c1ccccc1 [AS 1892802] | 1
Brc1c(Br)c(Br)c2n[nH]nc2c1Br [TBB] | 2

Molecule | CC (curve class)
Cc1nc(N2CCN(C(=O)c3ccco3)CC2)c2c3c(sc2n1)CCCC3 [ML192] | 4
C[C@@H](N)[C@H]1CC[C@H](C(=O)Nc2ccncc2)CC1 [Y-27632] | 2 and 1
CN1CCN(Cc2ccc(-c3cnc4[nH]cc(-c5ccc6[nH]ccc6c5)c4c3)cc2)CC1 [URMC-099] | 2
CC1(CCOC2OC(CO)C(O)C(O)C2O)CCC23OC2(C1)C(O)CC1C(C)(C(=O)O)CCCC13C (stereo not shown) [NCGC00380931-01] | 2
CCCCCCCCCCCCCC(=O)O[C@@H]1[C@@H](C)[C@@]2(O)[C@@H](C=C(CO)C[C@]3(O)C(=O)C(C)=C[C@@H]23)[C@@H]2C(C)(C)[C@]12OC(C)=O [Phorbol 12-myristate 13-acetate] | 1
COCC(=O)NC/C=C/c1ccc2ncnc(Nc3ccc(Oc4ccc(C)nc4)c(C)c3)c2c1 [CP-724714] | 2
O=C(O)Cc1cc(I)c(Oc2cc(I)c(O)c(I)c2)c(I)c1 [TETRAC] | 1
O=C(Nc1ccc(-c2ccnc(Nc3ccc(N4CCOCC4)cc3)n2)cc1)[C@@H]1CCCN1 [XL-19] | 3
O=C1NC(=O)C(=O)C(=O)N1 [ALLOXAN] | 2
Cc1cc2c(cc1CC(=O)c1sccc1S(=O)(=O)[N-]c1onc(C)c1Cl)OCO2.[Na+] [Sitaxenian sodium] | 2
C[C@H]1[C@H](C)CC[C@]2(C(=O)O)CC[C@]3(C)C(=CC[C@@H]4[C@@]5(C)CC[C@H](O)C(C)(C)[C@@H]5CC[C@]43C)[C@H]12 [URSOLIC ACID] | 4
CNc1nccc(-c2cccnc2Oc2cc(C(=O)Nc3cccc(C(F)(F)F)c3)ccc2C)n1 [AMG-Tie2-1] | 2
COc1ccc2c(c1)C[C@H](C(=O)Nc1ccc(-c3cn[nH]c3)cc1OCCN(C)C)CO2 [Chroman 1, (3S)—N-{2-[2-(Dimethylamino)ethoxy]-4-(1H-pyrazol-4-yl)phenyl}-6-methoxy-3,4-dihydro-2H-1-benzopyran-3-carboxamide] | 1
CC1(C)[C@@H](O[C@H]2O[C@H](C(=O)O)[C@@H](O)[C@H](O)[C@H]2O[C@@H]2O[C@H](C(=O)O)[C@@H](O)[C@H](O)[C@H]2O)CC[C@]2(C)[C@H]3C(=O)C=C4[C@@H]5C[C@@](C)(C(=O)O)CC[C@]5(C)CC[C@@]4(C)[C@]3(C)CC[C@@H]12.N [GLYCYRRHIZIC ACID. AMMONIUM SALT] | 2
CCn1c(-c2nonc2N)nc2c(C#CCO)ncc(OCCCN)c21 [AKT Kinase Inhibitor] | 4
Cc1n[nH]c2ccc(-c3cncc(OC[C@@H](N)Cc4c[nH]c5ccccc45)c3)cc12 [A-443654] | 4
C[C@@H]1O[C@@H](O[C@H]2[C@H](O[C@H]3[C@H](O[C@H]4CC[C@@]5(C)C(CC[C@]6(C)C5CC=C5[C@@H]7CC(C)(C(=O)O)C[C@@H](O)[C@]7(C)CC[C@]56C)[C@@]4(C)CO)O[C@H](C(=O)O)[C@@H](O)[C@@H]3O)O[C@H](CO)[C@H](O)[C@@H]2O)[C@H](O)[C@H](O)[C@H]1O (stereo partly shown) [NCGC00385739-01] | 2
C[C@@H]1CCN(C(=O)N2CCCC2)C[C@@H]1N(C)c1ncnc2[nH]ccc12 [PF-956980] | 3
